1 molecule from US20260258149A1 can be followed below.

Experiment [1] concerns the target Bovine Submaxillary Mucin (BSM) (bovine). As to the kind of experiment: ELISA on BSM, OD against antibody concentration.
Experiment [2] has the same target. In words: ELISA, plate coated with BSM at 3 ug/mL, absorbance at 450 nm normalised to percent of dose response effect.

Results are given in words; binding and its absence hold for the method and conditions named. Binding can be weak; no strength is given.

B1: humanized anti-STn antibody clone V1 (antibody, V domains shown)
VH: QVQLQESGPGLVKPSQTLSLTCTVIGYSITSGYYWNWIRQPPGKGLEWIGSINYDGSNIYNPSLKSRVTISRDTSKNQFSLKLSSVTAADTAVYYCARGGDYWGQGTTVTVSS
VL: EIVLTQSPATLSLSPGERATLSCSASSSVSYMHWFQQKPGQAPRRWIYDTSKRATGVPARFSGSGSGTDYTLTISSLEPEDFAAYYCQQWSSDPPMLTFGGGTKLEIK
With B1, the binding result in experiment [1] and in experiment [2] was “binds” each time.
